From PMC12884786, “Evolution of Multivalent Aptamer Corona for High‐Throughput Multiplexed Detection of Multiple Cancers”

By UniProt entry, the sequences of proteins in these tests, tags left out. Where a name states a change or a piece, a line headed by the entry shows the natural chain unless it says otherwise.
UniProt P0C0L5: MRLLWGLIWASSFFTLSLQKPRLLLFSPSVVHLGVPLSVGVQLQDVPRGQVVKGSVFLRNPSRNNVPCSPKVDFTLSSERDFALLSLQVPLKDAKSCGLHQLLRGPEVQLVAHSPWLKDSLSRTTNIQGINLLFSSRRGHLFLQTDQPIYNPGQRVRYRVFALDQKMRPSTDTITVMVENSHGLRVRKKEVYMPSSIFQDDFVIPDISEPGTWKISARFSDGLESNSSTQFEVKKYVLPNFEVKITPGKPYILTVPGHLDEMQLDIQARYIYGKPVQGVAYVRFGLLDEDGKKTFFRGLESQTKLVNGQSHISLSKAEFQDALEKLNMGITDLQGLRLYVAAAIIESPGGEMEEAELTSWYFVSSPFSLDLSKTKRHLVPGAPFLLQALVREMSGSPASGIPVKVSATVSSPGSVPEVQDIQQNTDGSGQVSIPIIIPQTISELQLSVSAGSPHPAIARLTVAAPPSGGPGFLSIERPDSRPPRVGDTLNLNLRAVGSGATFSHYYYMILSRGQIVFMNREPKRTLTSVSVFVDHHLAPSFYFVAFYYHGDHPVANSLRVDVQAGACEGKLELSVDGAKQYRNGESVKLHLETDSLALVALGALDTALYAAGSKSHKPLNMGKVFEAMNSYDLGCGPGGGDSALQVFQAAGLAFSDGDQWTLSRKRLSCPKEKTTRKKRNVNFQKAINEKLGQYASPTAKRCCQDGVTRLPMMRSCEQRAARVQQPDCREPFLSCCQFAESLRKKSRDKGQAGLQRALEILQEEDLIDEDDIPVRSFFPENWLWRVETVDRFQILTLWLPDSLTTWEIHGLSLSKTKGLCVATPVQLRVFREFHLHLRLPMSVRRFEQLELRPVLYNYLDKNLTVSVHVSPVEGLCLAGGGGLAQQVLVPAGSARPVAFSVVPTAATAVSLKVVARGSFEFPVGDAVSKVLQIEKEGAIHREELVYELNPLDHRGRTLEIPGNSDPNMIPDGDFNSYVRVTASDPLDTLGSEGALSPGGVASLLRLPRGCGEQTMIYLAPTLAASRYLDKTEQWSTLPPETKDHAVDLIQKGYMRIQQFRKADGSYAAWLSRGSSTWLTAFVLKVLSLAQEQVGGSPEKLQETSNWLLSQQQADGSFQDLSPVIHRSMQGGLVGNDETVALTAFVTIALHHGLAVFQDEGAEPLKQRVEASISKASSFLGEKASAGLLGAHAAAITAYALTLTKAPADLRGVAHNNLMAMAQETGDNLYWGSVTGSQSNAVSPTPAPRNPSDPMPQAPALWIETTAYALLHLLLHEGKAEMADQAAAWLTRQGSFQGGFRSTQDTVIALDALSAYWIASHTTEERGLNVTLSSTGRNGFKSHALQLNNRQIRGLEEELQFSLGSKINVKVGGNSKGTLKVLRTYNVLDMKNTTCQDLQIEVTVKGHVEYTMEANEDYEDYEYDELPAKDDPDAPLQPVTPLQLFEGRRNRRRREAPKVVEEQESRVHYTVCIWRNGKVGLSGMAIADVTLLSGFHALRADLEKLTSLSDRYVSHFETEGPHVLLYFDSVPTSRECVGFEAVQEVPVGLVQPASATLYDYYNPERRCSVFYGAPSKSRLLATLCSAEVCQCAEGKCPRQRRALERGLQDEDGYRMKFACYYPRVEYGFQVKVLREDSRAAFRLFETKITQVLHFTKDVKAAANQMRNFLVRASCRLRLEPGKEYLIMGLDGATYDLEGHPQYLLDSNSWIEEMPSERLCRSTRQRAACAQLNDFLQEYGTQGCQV
UniProt P02671: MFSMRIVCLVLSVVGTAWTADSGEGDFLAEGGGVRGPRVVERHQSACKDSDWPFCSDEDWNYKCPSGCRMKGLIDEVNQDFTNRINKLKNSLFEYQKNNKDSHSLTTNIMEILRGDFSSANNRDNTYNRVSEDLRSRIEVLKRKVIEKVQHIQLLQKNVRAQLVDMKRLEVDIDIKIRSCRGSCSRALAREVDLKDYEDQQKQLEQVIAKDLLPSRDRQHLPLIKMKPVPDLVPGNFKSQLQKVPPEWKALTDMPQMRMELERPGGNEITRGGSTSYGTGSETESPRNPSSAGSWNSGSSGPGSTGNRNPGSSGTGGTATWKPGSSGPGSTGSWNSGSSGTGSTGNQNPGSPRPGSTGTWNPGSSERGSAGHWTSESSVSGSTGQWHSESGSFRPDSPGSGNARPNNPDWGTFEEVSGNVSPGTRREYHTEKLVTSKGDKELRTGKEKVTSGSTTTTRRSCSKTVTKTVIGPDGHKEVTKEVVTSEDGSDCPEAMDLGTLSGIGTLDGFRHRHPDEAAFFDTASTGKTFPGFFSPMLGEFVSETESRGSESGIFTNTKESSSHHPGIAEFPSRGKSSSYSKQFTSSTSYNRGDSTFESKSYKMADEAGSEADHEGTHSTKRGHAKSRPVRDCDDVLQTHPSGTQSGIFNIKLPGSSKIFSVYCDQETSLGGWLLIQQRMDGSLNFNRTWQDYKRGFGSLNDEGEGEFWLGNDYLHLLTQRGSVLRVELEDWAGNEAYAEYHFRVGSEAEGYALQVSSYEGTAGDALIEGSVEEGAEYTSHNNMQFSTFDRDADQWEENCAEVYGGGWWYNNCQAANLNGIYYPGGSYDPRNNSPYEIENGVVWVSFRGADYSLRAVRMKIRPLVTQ
UniProt P07358: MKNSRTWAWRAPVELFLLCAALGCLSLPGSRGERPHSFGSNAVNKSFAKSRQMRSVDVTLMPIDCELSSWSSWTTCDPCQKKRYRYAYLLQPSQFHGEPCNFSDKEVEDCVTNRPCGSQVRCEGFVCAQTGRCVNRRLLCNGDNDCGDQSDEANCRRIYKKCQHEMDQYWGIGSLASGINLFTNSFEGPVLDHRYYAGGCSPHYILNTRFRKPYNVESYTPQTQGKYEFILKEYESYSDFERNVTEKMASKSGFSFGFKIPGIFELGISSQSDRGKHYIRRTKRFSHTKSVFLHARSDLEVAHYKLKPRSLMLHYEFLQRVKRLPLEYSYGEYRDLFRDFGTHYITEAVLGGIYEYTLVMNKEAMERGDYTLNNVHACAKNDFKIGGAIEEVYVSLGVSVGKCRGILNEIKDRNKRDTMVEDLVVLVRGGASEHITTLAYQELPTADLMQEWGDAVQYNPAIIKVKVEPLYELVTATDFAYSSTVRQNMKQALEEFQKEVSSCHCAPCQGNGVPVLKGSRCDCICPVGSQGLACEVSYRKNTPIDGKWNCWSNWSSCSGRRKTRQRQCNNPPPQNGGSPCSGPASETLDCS
UniProt P02675: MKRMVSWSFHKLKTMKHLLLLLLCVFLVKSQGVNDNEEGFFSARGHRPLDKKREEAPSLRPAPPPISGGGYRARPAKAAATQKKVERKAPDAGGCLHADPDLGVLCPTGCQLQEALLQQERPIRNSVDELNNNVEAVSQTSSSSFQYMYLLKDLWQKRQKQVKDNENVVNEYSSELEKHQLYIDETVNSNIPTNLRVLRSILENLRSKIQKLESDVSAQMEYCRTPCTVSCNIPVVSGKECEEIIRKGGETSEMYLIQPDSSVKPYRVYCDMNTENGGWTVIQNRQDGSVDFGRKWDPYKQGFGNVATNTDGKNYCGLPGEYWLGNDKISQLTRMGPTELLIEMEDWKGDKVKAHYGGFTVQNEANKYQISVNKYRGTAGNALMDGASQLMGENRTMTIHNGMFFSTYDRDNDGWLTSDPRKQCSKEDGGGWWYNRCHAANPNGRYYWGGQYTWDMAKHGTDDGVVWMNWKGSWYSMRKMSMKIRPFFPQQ
UniProt P02751: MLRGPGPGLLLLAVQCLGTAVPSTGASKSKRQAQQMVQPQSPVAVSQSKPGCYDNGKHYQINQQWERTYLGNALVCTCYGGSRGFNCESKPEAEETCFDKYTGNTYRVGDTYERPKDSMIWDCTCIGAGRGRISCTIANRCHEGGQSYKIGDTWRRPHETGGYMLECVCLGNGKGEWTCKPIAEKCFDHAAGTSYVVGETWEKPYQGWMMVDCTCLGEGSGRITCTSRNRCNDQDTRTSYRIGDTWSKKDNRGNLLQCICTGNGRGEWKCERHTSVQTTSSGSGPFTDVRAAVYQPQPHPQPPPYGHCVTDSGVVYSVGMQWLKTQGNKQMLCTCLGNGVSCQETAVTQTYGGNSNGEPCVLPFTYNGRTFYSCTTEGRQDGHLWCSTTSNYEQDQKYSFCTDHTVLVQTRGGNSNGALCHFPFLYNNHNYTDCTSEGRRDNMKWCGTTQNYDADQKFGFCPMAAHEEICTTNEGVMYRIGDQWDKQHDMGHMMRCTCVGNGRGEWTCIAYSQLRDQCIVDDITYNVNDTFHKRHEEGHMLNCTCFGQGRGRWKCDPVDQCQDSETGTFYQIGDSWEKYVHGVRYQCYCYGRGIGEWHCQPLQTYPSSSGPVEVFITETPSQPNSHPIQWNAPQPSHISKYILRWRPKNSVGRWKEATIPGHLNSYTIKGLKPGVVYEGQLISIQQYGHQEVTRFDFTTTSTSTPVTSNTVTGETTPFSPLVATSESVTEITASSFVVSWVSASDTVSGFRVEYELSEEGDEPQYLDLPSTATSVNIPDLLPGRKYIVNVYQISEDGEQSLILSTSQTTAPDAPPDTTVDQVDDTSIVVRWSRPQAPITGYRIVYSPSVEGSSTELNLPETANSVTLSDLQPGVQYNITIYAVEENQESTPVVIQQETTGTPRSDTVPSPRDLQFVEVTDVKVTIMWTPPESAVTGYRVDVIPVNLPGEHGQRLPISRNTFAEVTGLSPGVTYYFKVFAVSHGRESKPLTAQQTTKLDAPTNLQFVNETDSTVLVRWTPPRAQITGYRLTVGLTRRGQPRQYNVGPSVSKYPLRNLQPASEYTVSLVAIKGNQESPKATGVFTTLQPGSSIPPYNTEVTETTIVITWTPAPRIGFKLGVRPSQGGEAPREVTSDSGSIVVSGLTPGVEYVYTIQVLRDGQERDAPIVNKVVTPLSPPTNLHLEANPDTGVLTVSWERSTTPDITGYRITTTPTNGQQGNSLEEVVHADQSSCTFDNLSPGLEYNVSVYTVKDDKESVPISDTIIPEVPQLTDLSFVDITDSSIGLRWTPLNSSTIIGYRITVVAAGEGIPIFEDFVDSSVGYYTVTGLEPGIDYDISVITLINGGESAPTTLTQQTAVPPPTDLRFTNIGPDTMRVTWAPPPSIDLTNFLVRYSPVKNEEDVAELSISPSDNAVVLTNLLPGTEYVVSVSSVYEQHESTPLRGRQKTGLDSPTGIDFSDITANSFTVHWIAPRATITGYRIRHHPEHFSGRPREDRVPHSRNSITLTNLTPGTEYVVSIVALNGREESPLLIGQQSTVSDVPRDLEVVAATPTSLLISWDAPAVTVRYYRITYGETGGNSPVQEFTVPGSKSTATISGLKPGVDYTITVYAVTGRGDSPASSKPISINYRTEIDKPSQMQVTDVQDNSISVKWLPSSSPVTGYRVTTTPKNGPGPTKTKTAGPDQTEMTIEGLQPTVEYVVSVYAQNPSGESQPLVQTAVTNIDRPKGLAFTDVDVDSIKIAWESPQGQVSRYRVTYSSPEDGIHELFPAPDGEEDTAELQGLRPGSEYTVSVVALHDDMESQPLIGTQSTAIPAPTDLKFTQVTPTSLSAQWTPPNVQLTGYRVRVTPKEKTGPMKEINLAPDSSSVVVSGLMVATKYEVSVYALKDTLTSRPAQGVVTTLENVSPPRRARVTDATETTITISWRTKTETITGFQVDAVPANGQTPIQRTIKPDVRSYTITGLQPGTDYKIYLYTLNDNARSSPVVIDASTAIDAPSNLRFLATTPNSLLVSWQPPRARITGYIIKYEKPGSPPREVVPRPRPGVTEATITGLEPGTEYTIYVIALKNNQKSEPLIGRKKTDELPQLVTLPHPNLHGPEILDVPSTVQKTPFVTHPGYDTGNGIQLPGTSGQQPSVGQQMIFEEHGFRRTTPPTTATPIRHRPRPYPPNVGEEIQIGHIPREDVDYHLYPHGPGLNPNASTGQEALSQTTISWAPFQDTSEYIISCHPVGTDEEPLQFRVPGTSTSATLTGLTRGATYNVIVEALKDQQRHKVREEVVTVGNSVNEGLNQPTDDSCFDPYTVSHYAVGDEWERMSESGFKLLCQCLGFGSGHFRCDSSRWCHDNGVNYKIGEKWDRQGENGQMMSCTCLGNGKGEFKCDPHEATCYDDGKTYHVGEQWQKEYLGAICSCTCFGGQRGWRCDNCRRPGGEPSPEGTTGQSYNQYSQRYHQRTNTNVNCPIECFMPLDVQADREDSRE

What was measured:
Assay in all cases: SPR
Conditions in all cases: 5 mM Mg2+; SPR (Biacore 8K, CM5 chip, protein immobilized): DPBS with 5 mM Mg2+, 25 C; aptamer 0-1000 nM; pH not stated; commercial protein; single-stranded …
complement C4 (human) = complement C4 (human) (UniProt P0C0L5)
[1] = biological target: fibrinogen alpha chain (human) (UniProt P02671)
[2] = biological target: complement component C8 beta chain (human) (UniProt P07358)
[3] = biological target: fibrinogen beta chain (human) (UniProt P02675)
fibronectin (human) = fibronectin (human) (UniProt P02751)

Sequence: CAGCACCGTCAACTGAATGGAGCCGTGGGTGGGTGGGTGGTTGCTGCCGTGATGCGATGGAGATGT [CRC8]
- binding result (complement C4 (human)): binds

Sequence: CAGCACCGTCAACTGAATCGGCTAGGGACGAAGGGTCCGTTATAATGGTGATGCGATGGAGATGT [LC3]
- binding result [1]: binds

Sequence: CAGCACCGTCAACTGAATGTGGGTGGGCGGGTGGATGTTGACCTCCTGGTGATGCGATGGAGATGT [CRC9]
- binding result [2]: binds

Sequence: CAGCACCGTCAACTGAATTGGGAGGGGGGGTTGGGTAGTTGCGCGGACGTGATGCGATGGAGATGT [OV7]
- binding result [3]: binds

Sequence: CAGCACCGTCAACTGAATCAGAAATTCGGCCGAATAGTCACGTACCGGGTGATGCGATGGAGATGT [LC1]
- binding result (fibronectin (human)): binds

Construct, isoform or probe ends are uncertain for at least one entry.
